Measurements from “University of Dundee, Small-Polar-MMV Screening Library” (2021), ChEMBL document CHEMBL3988442.

Sequences of proteins named here, by UniProt entry; tags and fusion partners are left off. Residues count along the entry.
UniProt I6X8D2, whole entry: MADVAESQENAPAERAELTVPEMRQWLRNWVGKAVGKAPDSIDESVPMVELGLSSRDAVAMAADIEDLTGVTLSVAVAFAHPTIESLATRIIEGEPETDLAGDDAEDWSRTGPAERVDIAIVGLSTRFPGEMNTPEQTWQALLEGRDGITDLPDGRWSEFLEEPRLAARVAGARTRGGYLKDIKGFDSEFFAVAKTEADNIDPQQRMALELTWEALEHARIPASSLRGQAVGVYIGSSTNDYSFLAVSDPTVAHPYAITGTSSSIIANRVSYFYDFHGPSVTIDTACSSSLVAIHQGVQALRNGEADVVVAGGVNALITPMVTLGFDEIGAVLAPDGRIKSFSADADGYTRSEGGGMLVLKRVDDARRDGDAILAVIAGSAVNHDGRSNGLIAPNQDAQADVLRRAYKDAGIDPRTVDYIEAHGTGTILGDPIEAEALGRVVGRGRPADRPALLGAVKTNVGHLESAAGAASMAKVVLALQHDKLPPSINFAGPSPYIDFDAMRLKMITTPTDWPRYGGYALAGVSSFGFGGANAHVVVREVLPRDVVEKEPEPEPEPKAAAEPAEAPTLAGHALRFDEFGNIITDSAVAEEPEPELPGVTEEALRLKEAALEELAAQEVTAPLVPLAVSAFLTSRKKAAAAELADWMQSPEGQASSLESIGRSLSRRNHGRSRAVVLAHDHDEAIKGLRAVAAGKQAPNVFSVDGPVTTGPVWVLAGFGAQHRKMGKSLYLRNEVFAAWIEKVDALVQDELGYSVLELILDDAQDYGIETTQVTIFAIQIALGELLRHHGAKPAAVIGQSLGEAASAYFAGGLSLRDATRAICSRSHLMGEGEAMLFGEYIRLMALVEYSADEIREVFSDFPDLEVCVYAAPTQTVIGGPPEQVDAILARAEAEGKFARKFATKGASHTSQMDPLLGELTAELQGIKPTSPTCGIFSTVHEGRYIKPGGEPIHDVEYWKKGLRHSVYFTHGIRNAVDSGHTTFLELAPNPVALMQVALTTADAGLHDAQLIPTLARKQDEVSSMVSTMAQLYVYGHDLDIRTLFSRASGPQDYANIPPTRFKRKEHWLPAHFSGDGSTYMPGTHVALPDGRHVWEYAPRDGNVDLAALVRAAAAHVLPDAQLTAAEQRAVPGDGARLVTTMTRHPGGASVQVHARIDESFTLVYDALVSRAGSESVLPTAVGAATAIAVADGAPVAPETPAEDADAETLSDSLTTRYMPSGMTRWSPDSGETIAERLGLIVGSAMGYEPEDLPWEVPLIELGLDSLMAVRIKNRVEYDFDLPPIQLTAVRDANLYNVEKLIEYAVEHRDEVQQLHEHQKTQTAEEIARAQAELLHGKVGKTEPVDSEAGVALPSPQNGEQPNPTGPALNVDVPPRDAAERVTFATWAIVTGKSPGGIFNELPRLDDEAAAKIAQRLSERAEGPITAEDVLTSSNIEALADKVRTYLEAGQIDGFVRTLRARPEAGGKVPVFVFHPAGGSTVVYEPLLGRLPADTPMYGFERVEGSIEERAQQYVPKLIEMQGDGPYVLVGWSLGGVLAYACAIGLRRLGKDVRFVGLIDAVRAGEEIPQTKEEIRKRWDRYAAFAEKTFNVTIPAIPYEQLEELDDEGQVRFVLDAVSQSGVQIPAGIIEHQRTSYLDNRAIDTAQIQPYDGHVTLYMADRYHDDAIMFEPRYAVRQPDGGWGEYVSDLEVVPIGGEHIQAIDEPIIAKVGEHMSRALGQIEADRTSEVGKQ
UniProt P9WNZ1, whole entry: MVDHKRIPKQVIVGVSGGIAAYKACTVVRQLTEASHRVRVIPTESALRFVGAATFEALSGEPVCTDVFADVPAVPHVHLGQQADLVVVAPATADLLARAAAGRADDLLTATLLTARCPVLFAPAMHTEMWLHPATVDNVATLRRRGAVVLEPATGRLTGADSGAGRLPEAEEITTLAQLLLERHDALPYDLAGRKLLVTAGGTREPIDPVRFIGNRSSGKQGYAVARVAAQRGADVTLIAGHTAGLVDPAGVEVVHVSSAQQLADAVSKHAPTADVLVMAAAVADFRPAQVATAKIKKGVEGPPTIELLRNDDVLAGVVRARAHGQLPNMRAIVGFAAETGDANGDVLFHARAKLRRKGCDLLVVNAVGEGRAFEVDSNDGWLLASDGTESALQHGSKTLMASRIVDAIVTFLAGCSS
UniProt Q8IDJ8, 1-583: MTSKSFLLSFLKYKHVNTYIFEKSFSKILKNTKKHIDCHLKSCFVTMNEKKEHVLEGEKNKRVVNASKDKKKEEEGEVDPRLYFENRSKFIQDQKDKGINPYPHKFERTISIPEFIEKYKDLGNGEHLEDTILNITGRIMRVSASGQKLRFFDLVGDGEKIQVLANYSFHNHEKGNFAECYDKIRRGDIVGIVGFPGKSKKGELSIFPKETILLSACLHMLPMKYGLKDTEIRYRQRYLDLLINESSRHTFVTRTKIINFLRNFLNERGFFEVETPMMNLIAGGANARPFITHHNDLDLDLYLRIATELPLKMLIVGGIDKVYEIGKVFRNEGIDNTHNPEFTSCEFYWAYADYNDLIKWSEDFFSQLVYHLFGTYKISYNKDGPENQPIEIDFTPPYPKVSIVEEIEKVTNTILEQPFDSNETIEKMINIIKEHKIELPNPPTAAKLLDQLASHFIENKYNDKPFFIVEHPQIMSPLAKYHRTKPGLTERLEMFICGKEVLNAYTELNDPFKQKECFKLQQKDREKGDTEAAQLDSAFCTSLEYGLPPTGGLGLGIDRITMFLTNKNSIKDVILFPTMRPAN
UniProt Q4DA54, 1-478: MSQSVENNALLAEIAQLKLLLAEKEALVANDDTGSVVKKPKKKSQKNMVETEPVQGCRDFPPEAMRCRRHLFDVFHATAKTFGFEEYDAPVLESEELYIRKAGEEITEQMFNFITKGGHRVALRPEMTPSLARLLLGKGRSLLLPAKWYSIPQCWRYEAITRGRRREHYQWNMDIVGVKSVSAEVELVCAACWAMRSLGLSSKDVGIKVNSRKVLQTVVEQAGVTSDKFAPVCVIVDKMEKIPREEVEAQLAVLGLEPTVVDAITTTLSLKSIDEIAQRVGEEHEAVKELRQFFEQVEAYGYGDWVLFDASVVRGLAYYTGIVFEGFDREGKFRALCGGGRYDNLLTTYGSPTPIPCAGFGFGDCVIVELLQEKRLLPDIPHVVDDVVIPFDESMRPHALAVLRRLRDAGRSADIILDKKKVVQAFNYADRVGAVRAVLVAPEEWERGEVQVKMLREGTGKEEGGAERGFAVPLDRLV

Pks13 thioesterase: 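Polyketide synthase Pks13, Mycobacterium tuberculosis (UniProt I6X8D2). Enzyme assay of the thioesterase domain of polyketide synthase 13; the read-out is not stated. Tested at 30 µM. Higher reads as stronger inhibition (inferred from which compounds were picked for retests). Of about 67,000 compounds tested this way, about 300 (0.46%) reached 50% or more in at least one test.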
CoaBC: 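Enzyme assay of CoaBC with a phosphate dye (Biomol Green) read at 650 nm. Target: Coenzyme A biosynthesis protein CoaBC, Mycobacterium tuberculosis (UniProt P9WNZ1). Compounds at 30 µM. Higher reads as stronger inhibition, judged from the few compounds that gave an IC50. Most strong results did not repeat in a second test. Size under these conditions: about 67,000 compounds, about 40 of them at 50% or above in at least one test.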
PfKRS1: 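Enzyme assay of the cytosolic lysyl-tRNA synthetase in 384-well plates, read by luminescence. Target: Lysine-tRNA ligase, Plasmodium falciparum 3D7 (UniProt Q8IDJ8). Concentration: 30 µM. Direction is inferred from only a few compounds that gave an IC50; most scored high, so higher reads as stronger inhibition. About 69,000 compounds were tested under these conditions; 0.071% (about 49) showed 50% or more at least once.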
TcHisRS: 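Histidine-tRNA ligase, Trypanosoma cruzi CL Brener (UniProt Q4DA54). Enzyme assay of histidyl-tRNA synthetase; the read-out is not stated. Concentration: 30 µM. Higher reads as stronger inhibition (inferred: compounds with an IC50 in retests scored well above the rest). About 69,000 compounds were tested under these conditions; 0.045% (about 31) showed 50% or more at least once.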

Values are the deposited “Percent Effect”, in %. The record does not define 0% and 100%; most values in the screen are far below 50% and negative numbers occur (in some assays of this library far below -100). Compounds were drawn at random from those tested, without regard to their results. A dash means the value is not listed here; it may have been measured.

compound | Pks13 thioesterase | CoaBC | PfKRS1 | TcHisRS
CSCc1ccc(N2CCN(c3ccc(Cl)cn3)CC2)nc1 | 0.7414% | -1.316% | 4.429% | 5.579%
O=C1COC2(CCN(Cc3nccs3)CC2)CN1c1ccccc1 | 8.749% | 2.1% | 1.985% | 10.05%
Cc1cnn(C2CCCN(C(=O)c3ccc(N4CCCC4)nc3)C2)c1 (stereo not shown) | -3.309% | 5.032% | 0.8825% | 6.322%
CC1CCC(NC(=O)c2nn(C)cc2I)CC1 (stereo not shown) | -28.15% | 10.98% | 0.7939% | 0%
CN(C)c1nc2n(c(=O)n1)CCN2C(=O)Nc1ccccc1 | -15.6% | 0.2439% | 2.262% | 10.39%
OC1CCN(c2ccnc(NCCc3ccccc3Cl)n2)C1 (stereo not shown) | -11.02% | 4.43% | 2.389% | -3.659%
COc1cccc(Nc2nc(C3CCCNC3)c3sc(C)c(C)n23)c1 (stereo not shown) | -3.253% | 0.7177% | 0.8969% | -1.916%
O=S(=O)(Cc1ccc(F)c(Cl)c1)NCCOc1cccnc1 | 2.214% | -0.5051% | 4.291% | 8.772%
CCCc1n[nH]c(C2CN(CCCOc3ccccc3)CCO2)n1 (stereo not shown) | -11.4% | -3.394% | -4.984% | -0.3759%
Cc1ccc(Cn2c(=O)[nH]c3csnc3c2=O)cc1 | -9.795% | -7.311% | 6.406% | 9.278%
CC(C)NC(=O)NC[C@H]1OC[C@@H](NCc2ccccc2O)[C@@H]1O | -21.33% | 6.129% | 4.197% | -1.493%
O=C(N1CCOCC1)[C@@]12CCO[C@@H]1CCN(Cc1cccc(F)c1)C2 | 5.629% | 4.634% | 3.736% | -1.111%
CCCc1nc(CN(CC)C(=O)c2ccc3c(c2)nnn3C)no1 | -10.7% | 8.343% | 2.798% | -7.143%
COc1ccc(CN2CC(O)CN(C(=O)c3ccccc3)CC2=O)cc1 (stereo not shown) | -13.27% | 0.9685% | 7.816% | 5.618%
c1cc(N2CCC(CN3CCOCC3)CC2)c2sccc2n1 | -16.05% | -8.946% | 1.357% | 17.46%
CCn1cc(CNC2CCN(c3cccc(Cl)c3)C2)cn1 (stereo not shown) | -28.55% | -1.942% | -2.3% | 6.077%
COc1cc2nc(NCCNS(C)(=O)=O)cc(C)c2cc1OC | -8.597% | 2.232% | 1.472% | 3.867%
COc1ncccc1CNC(=O)N1CCC(CNC(C)=O)CC1 | -13.1% | 0.3745% | 7.063% | 5.102%
c1cc(CNCC2CNc3ccnn3C2)cc(Cn2cccn2)c1 (stereo not shown) | -18.88% | 12.27% | 1.729% | 5.764%
CCC1CCCCN1C(=O)Cn1nc(-c2ccc(C)o2)cc(N)c1=O (stereo not shown) | 13.14% | 8.138% | -0.6934% | 3.03%
O=C1N(CCCc2ccccc2)CCCC1(O)CNCc1ccccc1 (stereo not shown) | -12.13% | -48.02% | 3.99% | 7.627%
NC(=O)C1CCN(C(=O)NCc2ccccc2Cn2cncn2)CC1 | -5.744% | -0.2132% | 0.1156% | 2.5%
Cc1sc(NC(=O)CN(C)S(C)(=O)=O)c(C#N)c1C | -8.131% | 3.422% | 9.391% | 5.435%
Cc1nc(CN2CCOCC3(CCN(c4ccccn4)C3)C2)cs1 (stereo not shown) | 2.768% | 2.433% | -2.305% | 0.6135%
N#Cc1csc(CNCCOc2ccc(Cl)cn2)c1 | -7.421% | 6.762% | 5.966% | 0%
O=S(=O)(c1cccc(F)c1)N1CC[C@H]2[C@H]1CCN2c1ncccn1 | -32.45% | - | 5.902% | 4.908%
COc1ccc(CN(C)Cc2c(C)noc2C)c(Br)c1OC | -8.979% | -13.19% | 0.8614% | 0%
CN(C)[C@@H]1CCN(C(=O)Cc2cccs2)[C@H]1Cc1cnn(C)c1 | 1.011% | 3% | 4.344% | 1.961%
CCCn1nc2c(cc1=O)CN(Cc1ccccn1)CC2 | 0.856% | 3.024% | 14.44% | 21.74%
NC(=O)c1cc(NC(=O)NCCc2cc(F)cc(F)c2)ccc1F | -2.255% | 3.426% | 2.484% | -20.91%
CSCC(=O)N1CCCCC1Cn1cc(C)cn1 (stereo not shown) | -20.39% | 2.417% | 1.742% | 2.254%
CC(=O)N1CCN(c2ncnc3cc4c(cc23)OCCO4)CC1 | -16.21% | -1.155% | 4.704% | 4.348%
Cc1nccc(N[C@H]2CN(C(=O)C3(C#N)CCOCC3)C[C@@H]2C(C)C)n1 | 4.271% | -4.922% | -3.613% | 0%
COc1cc2nc(C)sc2cc1NC(=O)C(C)NC(N)=O (stereo not shown) | - | -3.273% | 5.041% | 8.163%
CN(C)CC1CN(Cc2nc(-c3cccnc3)no2)CCO1 (stereo not shown) | -5.356% | 2.041% | 1.779% | 2.924%
CCOc1ccc(CN2C(=O)CC3(CCCC3)C2=O)nc1 | -1.951% | -0.6424% | -0.1894% | 2.618%
Cc1cnn(CC2CCCN2C(=O)c2ccc3nnc(C)n3c2)c1 (stereo not shown) | 3.657% | 4.404% | 0.2813% | 0.7634%
OC(CN1CCOCC1)c1ccc(OC(F)(F)F)cc1 (stereo not shown) | -5.018% | 4.389% | 0.4816% | -0.7519%
COc1ccc(C2CN(c3nc(C)cc(C)n3)CCN2C(C)=O)cc1 (stereo not shown) | 17.8% | -6.658% | -1.627% | 12.12%
COc1ncccc1CN1C[C@H]2CCN(c3ncccn3)C[C@H]2C1 | -8.452% | 2.545% | 4.787% | 5.028%
Cc1ncc(CNC(=O)N(CCCO)C2CCc3ccccc32)s1 (stereo not shown) | -4.1% | 7.955% | 0.02812% | 5.764%
COc1ccccc1-c1nc(C(=O)N2CCOCC2)n2ccncc12 | - | -2.368% | 3.665% | 2.959%
CCc1noc(CN(C)C2CCN(c3sccc3C#N)C2=O)n1 (stereo not shown) | -33.82% | 4.783% | -0.4635% | 5.882%
Cc1noc(C)c1CN1CCO[C@H]2CN(C(=O)C3CCOCC3)C[C@H]21 | -4.199% | 3.185% | 3.874% | 4%
c1cnc(N2CCC(C3CCN(CCCn4cccn4)C3)CC2)nc1 (stereo not shown) | -31.08% | - | 1.615% | 9.211%

The first 3 entries again:

{"compound": "CSCc1ccc(N2CCN(c3ccc(Cl)cn3)CC2)nc1", "Pks13 thioesterase": 0.7414, "CoaBC": -1.316, "PfKRS1": 4.429, "TcHisRS": 5.579}
{"compound": "O=C1COC2(CCN(Cc3nccs3)CC2)CN1c1ccccc1", "Pks13 thioesterase": 8.749, "CoaBC": 2.1, "PfKRS1": 1.985, "TcHisRS": 10.05}
{"compound": "Cc1cnn(C2CCCN(C(=O)c3ccc(N4CCCC4)nc3)C2)c1", "stereo": "stereo not shown", "Pks13 thioesterase": -3.309, "CoaBC": 5.032, "PfKRS1": 0.8825, "TcHisRS": 6.322}